The other results are listed elsewhere or left out.
Legend:
Assay in all cases: log2 fold change, soluble protein after heating vs DMSO (PISA); higher = thermal stabilisation; K562 lysate, 10 uM; active = over 0.2 and 3.5 SD of the protein, either way, in both replicates (recomputed)
ibrutinib = compound: C=CC(=O)N1CCC[C@@H](n2nc(-c3ccc(Oc4ccccc4)cc3)c3c(N)ncnc32)C1 [ibrutinib]
How it was run: (§1)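 Soluble protein was defined as the supernatant remaining after 21,000xg for 90 min, following pooling of heated aliquots and adjustment to 0.5% NP-40 at 4°C. Before that, crude K562 extract at 1 mg/mL protein in PBS pH 7.4 with 1 mM MgCl2 was treated with 10 μM compound for 30 min and heated for 3 min across 48°C-58°C. Quantification used TMTpro 16plex LC-MS/MS with channel sums equalised, and values are log-two fold changes in thermal stability relative to solvent controls from duplicates.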

The chains behind the UniProt entries cited, without tags or fusion partners. Where a name states a change or a piece, a line headed by the entry shows the natural chain unless it says otherwise.
UniProt O60934: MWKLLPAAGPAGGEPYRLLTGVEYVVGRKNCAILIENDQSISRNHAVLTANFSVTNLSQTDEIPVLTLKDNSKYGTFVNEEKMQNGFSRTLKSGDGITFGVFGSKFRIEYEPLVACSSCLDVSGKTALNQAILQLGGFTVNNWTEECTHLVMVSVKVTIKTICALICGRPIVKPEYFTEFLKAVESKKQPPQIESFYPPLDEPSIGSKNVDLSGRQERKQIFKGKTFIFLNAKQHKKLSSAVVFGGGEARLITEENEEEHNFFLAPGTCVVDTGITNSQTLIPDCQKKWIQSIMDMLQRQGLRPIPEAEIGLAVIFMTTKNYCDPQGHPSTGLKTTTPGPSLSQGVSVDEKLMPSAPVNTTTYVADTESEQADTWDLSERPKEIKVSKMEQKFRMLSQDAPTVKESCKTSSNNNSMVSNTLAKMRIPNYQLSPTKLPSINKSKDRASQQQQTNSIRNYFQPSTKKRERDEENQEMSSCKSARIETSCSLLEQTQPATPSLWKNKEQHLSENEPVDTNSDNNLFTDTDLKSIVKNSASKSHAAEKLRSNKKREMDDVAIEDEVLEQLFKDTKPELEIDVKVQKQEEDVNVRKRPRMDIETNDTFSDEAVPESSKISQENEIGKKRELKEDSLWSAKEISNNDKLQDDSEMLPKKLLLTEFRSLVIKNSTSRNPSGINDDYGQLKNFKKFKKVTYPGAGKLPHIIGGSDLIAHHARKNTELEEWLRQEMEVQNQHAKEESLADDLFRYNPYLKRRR
UniProt Q96I59: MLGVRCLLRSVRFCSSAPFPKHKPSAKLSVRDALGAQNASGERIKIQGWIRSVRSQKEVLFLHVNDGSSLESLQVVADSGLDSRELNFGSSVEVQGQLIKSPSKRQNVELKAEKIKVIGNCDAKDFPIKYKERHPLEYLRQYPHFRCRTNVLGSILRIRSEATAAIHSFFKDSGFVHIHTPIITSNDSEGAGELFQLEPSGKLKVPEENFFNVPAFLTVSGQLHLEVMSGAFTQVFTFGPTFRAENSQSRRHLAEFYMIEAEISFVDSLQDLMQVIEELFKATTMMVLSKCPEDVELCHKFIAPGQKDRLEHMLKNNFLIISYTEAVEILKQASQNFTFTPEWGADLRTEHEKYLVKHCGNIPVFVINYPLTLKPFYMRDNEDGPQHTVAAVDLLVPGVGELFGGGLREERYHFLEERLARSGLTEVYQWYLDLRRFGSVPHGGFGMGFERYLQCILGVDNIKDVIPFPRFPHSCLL
UniProt A2RRP1: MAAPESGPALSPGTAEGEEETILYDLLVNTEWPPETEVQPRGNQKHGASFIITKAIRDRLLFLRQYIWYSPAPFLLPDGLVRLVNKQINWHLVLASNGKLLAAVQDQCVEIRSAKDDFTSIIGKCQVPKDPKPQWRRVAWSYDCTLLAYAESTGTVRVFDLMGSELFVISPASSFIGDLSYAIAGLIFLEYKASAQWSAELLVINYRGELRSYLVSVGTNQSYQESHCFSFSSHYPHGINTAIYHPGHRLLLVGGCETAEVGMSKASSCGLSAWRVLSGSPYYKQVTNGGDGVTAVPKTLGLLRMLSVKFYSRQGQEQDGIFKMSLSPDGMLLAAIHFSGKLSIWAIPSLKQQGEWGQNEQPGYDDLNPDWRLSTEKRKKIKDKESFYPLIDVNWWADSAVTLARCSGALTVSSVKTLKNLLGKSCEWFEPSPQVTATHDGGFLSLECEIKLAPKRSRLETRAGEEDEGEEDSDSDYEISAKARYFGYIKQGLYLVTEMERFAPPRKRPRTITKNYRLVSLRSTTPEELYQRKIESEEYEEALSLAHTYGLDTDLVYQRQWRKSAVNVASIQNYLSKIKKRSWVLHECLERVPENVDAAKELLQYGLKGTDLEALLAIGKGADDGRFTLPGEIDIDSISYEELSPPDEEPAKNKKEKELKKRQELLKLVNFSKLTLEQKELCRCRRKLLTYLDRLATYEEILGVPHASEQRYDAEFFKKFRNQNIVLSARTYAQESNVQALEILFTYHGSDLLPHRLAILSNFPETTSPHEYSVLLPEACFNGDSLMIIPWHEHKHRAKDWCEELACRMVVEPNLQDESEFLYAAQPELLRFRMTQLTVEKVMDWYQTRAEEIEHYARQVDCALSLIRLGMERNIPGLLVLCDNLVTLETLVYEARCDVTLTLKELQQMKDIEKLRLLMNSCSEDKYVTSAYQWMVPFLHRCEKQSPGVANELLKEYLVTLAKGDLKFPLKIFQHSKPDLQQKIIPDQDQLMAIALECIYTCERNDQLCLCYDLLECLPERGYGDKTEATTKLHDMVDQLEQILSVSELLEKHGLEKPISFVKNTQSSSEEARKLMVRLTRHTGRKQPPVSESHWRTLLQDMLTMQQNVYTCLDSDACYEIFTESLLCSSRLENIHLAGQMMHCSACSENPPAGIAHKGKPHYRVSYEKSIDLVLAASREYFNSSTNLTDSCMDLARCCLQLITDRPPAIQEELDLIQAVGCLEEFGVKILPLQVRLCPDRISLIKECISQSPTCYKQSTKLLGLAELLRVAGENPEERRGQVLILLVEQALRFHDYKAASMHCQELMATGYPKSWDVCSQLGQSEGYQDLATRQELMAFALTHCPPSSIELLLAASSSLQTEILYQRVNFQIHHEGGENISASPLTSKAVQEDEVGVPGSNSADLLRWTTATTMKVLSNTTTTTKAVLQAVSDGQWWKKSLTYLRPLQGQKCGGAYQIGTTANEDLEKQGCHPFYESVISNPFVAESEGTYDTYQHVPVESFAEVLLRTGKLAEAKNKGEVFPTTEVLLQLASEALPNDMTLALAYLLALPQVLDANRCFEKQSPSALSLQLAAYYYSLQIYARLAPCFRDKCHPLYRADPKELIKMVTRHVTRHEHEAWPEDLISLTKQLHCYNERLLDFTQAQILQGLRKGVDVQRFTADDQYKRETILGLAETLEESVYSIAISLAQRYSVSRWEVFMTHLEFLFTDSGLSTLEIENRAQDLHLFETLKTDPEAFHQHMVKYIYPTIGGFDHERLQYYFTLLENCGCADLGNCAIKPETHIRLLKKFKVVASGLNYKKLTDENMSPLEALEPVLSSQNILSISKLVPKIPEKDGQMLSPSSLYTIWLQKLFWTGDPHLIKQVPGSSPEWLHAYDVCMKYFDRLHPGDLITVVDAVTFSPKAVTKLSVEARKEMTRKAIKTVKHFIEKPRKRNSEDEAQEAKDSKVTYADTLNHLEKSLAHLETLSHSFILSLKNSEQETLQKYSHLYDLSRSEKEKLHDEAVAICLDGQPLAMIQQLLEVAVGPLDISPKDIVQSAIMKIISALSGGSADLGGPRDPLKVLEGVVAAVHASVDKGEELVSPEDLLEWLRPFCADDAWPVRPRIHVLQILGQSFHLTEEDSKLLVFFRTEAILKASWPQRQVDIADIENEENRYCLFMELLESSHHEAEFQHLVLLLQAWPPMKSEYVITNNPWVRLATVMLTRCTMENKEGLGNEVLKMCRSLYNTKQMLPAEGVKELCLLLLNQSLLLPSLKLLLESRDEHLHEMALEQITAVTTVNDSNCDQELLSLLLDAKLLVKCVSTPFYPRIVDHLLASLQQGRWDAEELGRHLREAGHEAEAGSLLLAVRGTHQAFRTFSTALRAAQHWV
UniProt Q8NCW5: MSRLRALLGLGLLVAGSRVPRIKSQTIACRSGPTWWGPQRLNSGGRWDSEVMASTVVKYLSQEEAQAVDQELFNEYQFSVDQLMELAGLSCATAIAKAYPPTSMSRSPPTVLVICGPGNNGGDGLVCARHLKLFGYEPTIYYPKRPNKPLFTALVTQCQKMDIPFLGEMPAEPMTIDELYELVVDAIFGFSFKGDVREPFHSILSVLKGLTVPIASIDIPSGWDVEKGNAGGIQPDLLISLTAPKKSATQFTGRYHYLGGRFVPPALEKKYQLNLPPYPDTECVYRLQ
UniProt Q9BXJ9: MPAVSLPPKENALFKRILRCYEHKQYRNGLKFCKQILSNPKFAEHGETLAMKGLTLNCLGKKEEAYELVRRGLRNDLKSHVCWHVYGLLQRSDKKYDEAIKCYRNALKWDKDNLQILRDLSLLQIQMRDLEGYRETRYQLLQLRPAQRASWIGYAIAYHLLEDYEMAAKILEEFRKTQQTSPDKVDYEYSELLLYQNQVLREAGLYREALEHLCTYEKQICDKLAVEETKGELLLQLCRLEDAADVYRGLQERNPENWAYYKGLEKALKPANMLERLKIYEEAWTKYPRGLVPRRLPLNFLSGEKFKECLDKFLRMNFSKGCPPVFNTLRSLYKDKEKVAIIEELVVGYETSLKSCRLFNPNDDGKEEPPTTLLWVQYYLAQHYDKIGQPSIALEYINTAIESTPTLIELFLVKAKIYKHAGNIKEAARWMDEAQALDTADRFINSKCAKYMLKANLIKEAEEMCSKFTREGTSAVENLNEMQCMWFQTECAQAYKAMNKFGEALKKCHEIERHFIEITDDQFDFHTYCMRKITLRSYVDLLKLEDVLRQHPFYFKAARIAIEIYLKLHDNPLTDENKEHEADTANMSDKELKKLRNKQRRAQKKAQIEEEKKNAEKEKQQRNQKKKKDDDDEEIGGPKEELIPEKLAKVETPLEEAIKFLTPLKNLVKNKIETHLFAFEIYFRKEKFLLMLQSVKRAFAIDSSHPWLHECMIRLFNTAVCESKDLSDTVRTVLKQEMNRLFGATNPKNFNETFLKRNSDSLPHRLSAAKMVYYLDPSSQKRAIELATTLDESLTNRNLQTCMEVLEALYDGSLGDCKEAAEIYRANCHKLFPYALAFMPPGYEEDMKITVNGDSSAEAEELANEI
UniProt P54802: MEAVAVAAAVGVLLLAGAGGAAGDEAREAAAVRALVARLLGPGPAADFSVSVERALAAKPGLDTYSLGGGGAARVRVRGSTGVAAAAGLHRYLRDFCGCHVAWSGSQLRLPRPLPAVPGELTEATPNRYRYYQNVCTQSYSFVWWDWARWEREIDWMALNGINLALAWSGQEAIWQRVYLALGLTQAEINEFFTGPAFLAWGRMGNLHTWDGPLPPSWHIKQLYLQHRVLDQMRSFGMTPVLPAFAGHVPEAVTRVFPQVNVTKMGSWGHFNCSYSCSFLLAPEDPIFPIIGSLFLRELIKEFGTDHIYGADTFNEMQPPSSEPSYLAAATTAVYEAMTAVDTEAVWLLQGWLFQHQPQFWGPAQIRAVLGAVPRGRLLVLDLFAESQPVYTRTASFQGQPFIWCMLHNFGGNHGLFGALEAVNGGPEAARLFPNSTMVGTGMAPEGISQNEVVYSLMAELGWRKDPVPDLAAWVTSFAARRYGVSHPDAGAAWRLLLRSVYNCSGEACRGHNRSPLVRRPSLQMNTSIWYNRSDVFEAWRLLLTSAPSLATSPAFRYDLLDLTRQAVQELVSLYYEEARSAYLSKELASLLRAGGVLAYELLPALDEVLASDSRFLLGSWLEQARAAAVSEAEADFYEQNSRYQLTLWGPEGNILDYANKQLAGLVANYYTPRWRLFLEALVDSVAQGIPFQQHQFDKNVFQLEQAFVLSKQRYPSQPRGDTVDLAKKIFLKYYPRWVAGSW
UniProt Q53F19: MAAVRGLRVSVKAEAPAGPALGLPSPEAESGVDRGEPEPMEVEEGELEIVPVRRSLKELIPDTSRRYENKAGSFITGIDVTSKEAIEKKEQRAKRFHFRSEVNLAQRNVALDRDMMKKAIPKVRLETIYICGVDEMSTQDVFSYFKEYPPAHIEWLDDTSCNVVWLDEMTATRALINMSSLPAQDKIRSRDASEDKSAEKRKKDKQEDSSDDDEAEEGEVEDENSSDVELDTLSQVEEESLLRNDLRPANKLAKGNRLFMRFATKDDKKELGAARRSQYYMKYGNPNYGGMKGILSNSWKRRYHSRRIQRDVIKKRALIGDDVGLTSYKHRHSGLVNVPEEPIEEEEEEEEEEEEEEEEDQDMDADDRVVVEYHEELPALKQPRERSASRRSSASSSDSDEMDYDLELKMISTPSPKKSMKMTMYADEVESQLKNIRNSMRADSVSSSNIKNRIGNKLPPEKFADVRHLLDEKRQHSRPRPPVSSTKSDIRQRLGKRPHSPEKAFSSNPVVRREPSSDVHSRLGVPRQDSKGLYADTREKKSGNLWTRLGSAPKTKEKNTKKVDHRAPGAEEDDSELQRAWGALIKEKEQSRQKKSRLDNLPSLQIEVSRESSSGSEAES
UniProt Q9BQ15: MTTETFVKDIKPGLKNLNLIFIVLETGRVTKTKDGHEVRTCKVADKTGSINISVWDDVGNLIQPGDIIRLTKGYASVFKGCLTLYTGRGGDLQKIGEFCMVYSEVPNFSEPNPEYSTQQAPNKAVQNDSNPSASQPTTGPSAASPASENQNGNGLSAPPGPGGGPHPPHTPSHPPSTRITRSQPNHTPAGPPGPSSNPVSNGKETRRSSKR
UniProt P41227: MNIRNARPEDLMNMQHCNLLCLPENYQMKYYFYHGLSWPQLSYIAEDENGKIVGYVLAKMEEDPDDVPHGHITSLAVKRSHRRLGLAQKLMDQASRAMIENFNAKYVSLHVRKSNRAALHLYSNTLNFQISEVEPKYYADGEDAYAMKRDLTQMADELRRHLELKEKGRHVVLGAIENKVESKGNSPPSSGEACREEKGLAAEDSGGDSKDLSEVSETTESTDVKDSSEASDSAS

[1] = compound: CC(=O)c1cnc2ccc(-c3cc(Cl)c(O)c(Cl)c3)nc2c1N[C@H]1CC[C@H](CN(C)C)CC1
How it was run: as §1

ralimetinib = compound: CC(C)(C)Cn1c(N)nc2ccc(-c3[nH]c(C(C)(C)C)nc3-c3ccc(F)cc3)nc21 [ralimetinib]
How it was run: as §1

[2] = compound: CC(C)(O)CC(=O)NCCn1ccc2ncnc(Nc3ccc(Oc4cccc(C(F)(F)F)c4)c(Cl)c3)c21
How it was run: as §1

[3] = compound: CC(C)C1=C2N=C(C=C(N2N=C1)NCC3=CC=CC=C3)NCCCCCCN
How it was run: as §1

[4] = compound: CC1=C(C(CC(=O)N1)C2=CC=C(C=C2)C(F)(F)F)C(=O)NC3=C(C=C4C(=C3)C=NN4)F
How it was run: as §1

[5] = compound: CC1=C(C2=C(C=C1)C(=O)C3=CC=CC=C3N2CCCN)C
How it was run: as §1

[6] = compound: CC1=C(C=C(C=C1)NC(=O)C2=CC(=CC=C2)C(C)(C)C#N)NC3=CC4=C(C=C3)N=CN(C4=O)C
How it was run: as §1

[7] = compound: CC1=C(C=C(C=C1)NC(=O)C2=CC(=CC=C2)N(C)C)NC(=O)C3=CC=C(C=C3)O
How it was run: as §1

[8] = compound: CC1=CC=C(C=C1)SC2=C3C=C(SC3=CN=C2)C(=O)N
How it was run: as §1

vemurafenib = compound: CCCS(=O)(=O)Nc1ccc(F)c(C(=O)c2c[nH]c3ncc(-c4ccc(Cl)cc4)cc23)c1F [vemurafenib]
How it was run: as §1

[9] = compound: CCCS(=O)(=O)Nc1ccc(F)c(C(=O)c2c[nH]c3ncc(Cl)cc23)c1F
How it was run: as §1

barasertib = compound: CCN(CCCOc1ccc2c(Nc3cc(CC(=O)Nc4cccc(F)c4)[nH]n3)ncnc2c1)CCOP(=O)(O)O [barasertib]
How it was run: as §1

[10] = compound: CC[C@@H]1C(=O)N(C)c2cnc(Nc3ccc(C(=O)NC4CCN(C)CC4)cc3OC)nc2N1C1CCCC1
How it was run: as §1

volasertib = compound: CC[C@@H]1C(=O)N(C)c2cnc(Nc3ccc(C(=O)N[C@H]4CC[C@H](N5CCN(CC6CC6)CC5)CC4)cc3OC)nc2N1C(C)C [volasertib]
How it was run: as §1

[11] = compound: CCn1c(C(=O)N(C2CC2)C2CC2)cc2c3c(ncn3C)c(Nc3cc(C)n(C)n3)nc21
How it was run: as §1

[12] = compound: CCn1cc(-c2ccnc3[nH]c(-c4cccc(CN(C)C)c4)cc23)c(-c2ccc(NC(=O)N(C)C)cc2)n1
How it was run: as §1

[13] = compound: CN1CCC(CNc2ccc3ncc(-c4cccc(OC(F)(F)F)c4)n3n2)CC1
How it was run: as §1

saracatinib = compound: CN1CCN(CCOc2cc(OC3CCOCC3)c3c(Nc4c(Cl)ccc5c4OCO5)ncnc3c2)CC1 [saracatinib]
How it was run: as §1

sotrastaurin = compound: CN1CCN(c2nc(C3=C(c4c[nH]c5ccccc45)C(=O)NC3=O)c3ccccc3n2)CC1 [sotrastaurin]
How it was run: as §1

| Target | log2 fold change (ibrutinib) | log2 fold change [1] | log2 fold change (ralimetinib) | log2 fold change [2] | log2 fold change [3] | log2 fold change [4] | log2 fold change [5] | log2 fold change [6] | log2 fold change [7] | log2 fold change [8] | log2 fold change (vemurafenib) | log2 fold change [9] | log2 fold change (barasertib) | log2 fold change [10] | log2 fold change (volasertib) | log2 fold change [11] | log2 fold change [12] | log2 fold change [13] | log2 fold change (saracatinib) | log2 fold change (sotrastaurin) |
| --- | --- | --- | --- | --- | --- | --- | --- | --- | --- | --- | --- | --- | --- | --- | --- | --- | --- | --- | --- | --- |
| MUL1 (UniProt Q969V5) | inactive: 0.033 | inactive: 0.047 | inactive: 0.004 | inactive: -0.064 | inactive: -0.054 | inactive: -0.011 | inactive: -0.014 | inactive: -0.06 | inactive: -0.027 | inactive: -0.02 | inactive: 0.023 | inactive: 0.009 | inactive: 0.025 | inactive: -0.007 | inactive: -0.031 | inactive: -0.016 | inactive: 0.176 | inactive: -0.044 | inactive: 0.047 | inactive: 0.007 |
| NBN (UniProt O60934) | inactive: 0.016 | inactive: -0.003 | inactive: 0.014 | inactive: 0.01 | inactive: -0.016 | inactive: -0.007 | inactive: -0.015 | inactive: -0.021 | inactive: 0.022 | inactive: -0.016 | inactive: 0.011 | inactive: 0.011 | inactive: 0.037 | inactive: -0.028 | inactive: -0.019 | inactive: -0.003 | inactive: 0.043 | inactive: -0.058 | inactive: 0.025 | inactive: 0.001 |
| NARS2 (UniProt Q96I59) | inactive: 0.01 | inactive: 0.009 | inactive: 0.009 | inactive: 0.003 | inactive: -0.001 | inactive: 0.017 | inactive: -0.024 | inactive: -0.007 | inactive: 0.045 | inactive: 0.038 | inactive: 0.022 | inactive: 0.028 | inactive: 0 | inactive: -0.025 | inactive: -0.067 | inactive: 0.041 | inactive: -0.091 | inactive: 0.027 | inactive: 0.001 | inactive: -0.024 |
| MYCBP2 (UniProt O75592) | inactive: 0.014 | inactive: -0.027 | inactive: 0.033 | inactive: -0.085 | inactive: 0.014 | inactive: 0.016 | inactive: -0.028 | inactive: 0.028 | inactive: 0.036 | inactive: -0.033 | inactive: -0.026 | inactive: 0.036 | inactive: 0.037 | inactive: 0.017 | inactive: -0.019 | inactive: -0.01 | inactive: -0.117 | inactive: 0.083 | inactive: 0.033 | inactive: -0.029 |
| NBAS (UniProt A2RRP1) | inactive: -0.046 | inactive: 0.001 | inactive: 0.047 | inactive: -0.099 | inactive: -0.018 | inactive: 0.049 | inactive: 0.006 | inactive: -0.049 | inactive: -0.109 | inactive: 0.064 | inactive: 0.026 | inactive: -0.027 | inactive: 0.117 | inactive: -0.172 | inactive: -0.11 | inactive: 0.057 | inactive: -0.012 | inactive: -0.036 | inactive: 0.049 | inactive: 0.032 |
| NCSTN (UniProt Q92542) | inactive: 0.05 | inactive: -0.069 | inactive: 0.038 | inactive: -0.06 | inactive: -0.011 | inactive: -0.014 | inactive: -0.08 | inactive: 0.016 | inactive: -0.006 | inactive: 0.032 | inactive: 0.025 | inactive: -0.009 | inactive: 0.026 | inactive: 0.022 | inactive: -0.012 | inactive: 0 | inactive: -0.229 | inactive: 0.145 | inactive: 0.027 | inactive: 0.006 |
| NAXE (UniProt Q8NCW5) | inactive: 0.047 | inactive: 0.016 | inactive: 0.011 | inactive: -0.011 | inactive: -0.016 | inactive: -0.031 | inactive: -0.012 | inactive: 0.011 | inactive: -0.03 | inactive: 0.023 | inactive: -0.007 | inactive: -0.005 | inactive: 0.182 | inactive: 0.053 | inactive: 0.042 | inactive: 0.016 | inactive: -0.009 | inactive: -0.01 | inactive: -0.003 | inactive: -0.013 |
| NAA15 (UniProt Q9BXJ9) | inactive: -0.014 | inactive: 0.004 | inactive: -0.001 | inactive: 0.02 | inactive: -0.012 | inactive: -0.021 | inactive: 0.016 | inactive: -0.007 | inactive: 0.002 | inactive: 0.012 | inactive: -0.034 | inactive: 0.004 | inactive: 0.006 | inactive: -0.042 | inactive: -0.017 | inactive: 0.018 | inactive: 0.031 | inactive: -0.004 | inactive: -0.009 | inactive: -0.004 |
| NAGLU (UniProt P54802) | inactive: 0.05 | inactive: 0.025 | inactive: 0.044 | inactive: -0.133 | inactive: 0.034 | inactive: -0.167 | inactive: 0.008 | inactive: 0.11 | inactive: -0.04 | inactive: 0 | inactive: 0.048 | inactive: 0.012 | inactive: -0.015 | inactive: 0.031 | inactive: -0.085 | inactive: -0.007 | inactive: 0.025 | inactive: 0.001 | inactive: 0.06 | inactive: -0.051 |
| NCK1 (UniProt P16333) | inactive: 0.025 | inactive: -0.029 | inactive: 0.003 | inactive: 0.01 | inactive: -0.016 | inactive: 0.028 | inactive: 0.002 | inactive: -0.005 | inactive: 0.029 | inactive: 0 | inactive: 0.049 | inactive: 0.003 | inactive: -0.008 | inactive: 0.068 | inactive: -0.011 | inactive: -0.025 | inactive: 0.067 | inactive: -0.05 | inactive: 0.015 | inactive: 0.014 |
| NCBP3 (UniProt Q53F19) | inactive: -0.021 | inactive: 0.01 | inactive: -0.106 | inactive: -0.061 | inactive: 0.011 | inactive: -0.032 | inactive: 0.024 | inactive: -0.004 | inactive: 0.053 | inactive: 0.013 | inactive: -0.074 | inactive: -0.008 | inactive: 0 | inactive: -0.021 | inactive: -0.042 | inactive: -0.036 | inactive: -0.01 | inactive: -0.01 | inactive: -0.109 | inactive: -0.018 |
| MYH11 isoform 2 (UniProt P35749) | inactive: -0.051 | inactive: -0.011 | inactive: -0.094 | inactive: -0.043 | inactive: 0.013 | inactive: -0.019 | inactive: -0.007 | inactive: -0.043 | inactive: 0 | inactive: -0.004 | inactive: 0.027 | inactive: 0.016 | inactive: 0.016 | inactive: -0.011 | inactive: -0.025 | inactive: 0.091 | active: 0.25 | inactive: -0.033 | inactive: 0.029 | inactive: 0.002 |
| NBEAL2 (UniProt Q6ZNJ1) | inactive: -0.048 | inactive: 0.011 | inactive: 0.023 | inactive: -0.047 | inactive: 0.003 | inactive: 0.036 | inactive: -0.011 | inactive: 0.047 | inactive: 0.06 | inactive: -0.013 | inactive: -0.047 | inactive: 0.021 | inactive: 0.045 | inactive: -0.053 | inactive: -0.128 | inactive: 0.01 | inactive: 0.013 | inactive: -0.037 | inactive: 0.013 | inactive: 0 |
| NABP2 (UniProt Q9BQ15) | inactive: -0.002 | inactive: -0.055 | inactive: 0 | inactive: -0.004 | inactive: -0.038 | inactive: -0.09 | inactive: -0.237 | inactive: 0.076 | inactive: 0.035 | inactive: -0.066 | inactive: 0.026 | inactive: 0.064 | inactive: -0.058 | inactive: -0.009 | inactive: 0.001 | inactive: -0.042 | inactive: 0.122 | inactive: -0.036 | inactive: -0.041 | inactive: -0.008 |
| NCBP1 (UniProt Q09161) | inactive: -0.034 | inactive: -0.001 | inactive: 0.039 | inactive: -0.001 | inactive: -0.03 | inactive: -0.009 | inactive: 0.005 | inactive: 0.003 | inactive: 0.012 | inactive: 0.008 | inactive: -0.004 | inactive: 0.023 | inactive: 0.014 | inactive: -0.038 | inactive: -0.016 | inactive: -0.004 | inactive: -0.093 | inactive: 0.035 | inactive: 0.003 | inactive: 0.04 |
| NAA10 (UniProt P41227) | inactive: 0.018 | inactive: 0.021 | inactive: -0.001 | inactive: 0.008 | inactive: 0.006 | inactive: 0.016 | inactive: 0.004 | inactive: -0.027 | inactive: -0.004 | inactive: 0.004 | inactive: 0.008 | inactive: -0.002 | inactive: -0.017 | inactive: -0.022 | inactive: -0.014 | inactive: 0.031 | inactive: 0.066 | inactive: -0.028 | inactive: 0.011 | inactive: -0.004 |

Full records as entered above. Values in the order: log2 fold change (ibrutinib)	log2 fold change [1]	log2 fold change (ralimetinib)	log2 fold change [2]	log2 fold change [3]	log2 fold change [4]	log2 fold change [5]	log2 fold change [6]	log2 fold change [7]	log2 fold change [8]	log2 fold change (vemurafenib)	log2 fold change [9]	log2 fold change (barasertib)	log2 fold change [10]	log2 fold change (volasertib)	log2 fold change [11]	log2 fold change [12]	log2 fold change [13]	log2 fold change (saracatinib)	log2 fold change (sotrastaurin)
NBAS (UniProt A2RRP1) is listed with inactive: -0.046	inactive: 0.001	inactive: 0.047	inactive: -0.099	inactive: -0.018	inactive: 0.049	inactive: 0.006	inactive: -0.049	inactive: -0.109	inactive: 0.064	inactive: 0.026	inactive: -0.027	inactive: 0.117	inactive: -0.172	inactive: -0.11	inactive: 0.057	inactive: -0.012	inactive: -0.036	inactive: 0.049	inactive: 0.032
NCBP3 (UniProt Q53F19) is listed with inactive: -0.021	inactive: 0.01	inactive: -0.106	inactive: -0.061	inactive: 0.011	inactive: -0.032	inactive: 0.024	inactive: -0.004	inactive: 0.053	inactive: 0.013	inactive: -0.074	inactive: -0.008	inactive: 0	inactive: -0.021	inactive: -0.042	inactive: -0.036	inactive: -0.01	inactive: -0.01	inactive: -0.109	inactive: -0.018

From the supplement of paper PMC10849652
